Reference: PubChem BioAssay AID624297 (National Center for Advancing Translational Sciences (NCATS), 2012)
In all, about 340,000 compounds went through this assay and about 6,200 (1.8%) were called active. The shares of active, inactive and inconclusive entries below differ from those in the screen. The call rests on the fitted dose curve; in most records, active means well fitted activation curve with a large enough effect; inconclusive means small, poorly fitted or top-dose-only effect; inactive means no such curve, though single readings can be large or run the other way. Potencies of inconclusive entries are doubtful fits and often do not repeat.

experiment: A quantitative high throughput screen for small molecules that induce DNA re-replication in SW480 colon adenocarcinoma cells.; further: nearly all actives have a fitted effect of over 55% in size; on re-replication activation: % of control where 0% means no effect; details: Hoechst DNA content imaging, 48 h; re-replication activation: at 46.1 µM (top of the series) unless noted
In short: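 Compounds, transferred as 23 nL by pin tool, were incubated with cells for 48 hr; DNA content per nucleus was then quantified by Hoechst staining and fluorescence plate imaging.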
Potency means the concentration at half of the fitted maximal effect.

Row | Structure (SMILES) | Potency | re-replication activation
1 | CCOc1ccc(-c2cc(C(=O)NCCCN3CCOCC3)c3ccccc3n2)cc1 | inconclusive: 23.1 µM [activator, single point] | –
2 | CCn1c(/C=C/c2cc(Br)ccc2O)nc2ccccc2c1=O | inconclusive: 29.1 µM [activator, single point] | –
3 | CC1CCCN(C(=O)CSc2nnc(-c3ccc(S(=O)(=O)N4CCOCC4)cc3)n2C)C1 (centres undefined) | inconclusive: 29.1 µM [activator, single point] | –
4 | CCCCOc1ccc(C(=O)Oc2cccnc2)cc1 | – | inactive: -10.4%
5 | NC(=S)N/N=C/c1ccc(C23CC4CC(CC(C4)C2)C3)cc1 | active: 7.31 µM | –
6 | CC(C)(C)n1nnnc1C(c1cccs1)N(Cc1cccnc1)Cc1ccccc1Cl (centres undefined) | inconclusive: 23.1 µM [activator, partial curve, poor fit] | –
7 | COc1ccc2nc(NC(=S)NC(=O)c3ccco3)sc2c1 | – | inactive: 13%
8 | NC(=O)CSc1nnc(COc2ccc3ccccc3c2)o1 | inconclusive: 20.6 µM [activator, single point] | –
9 | Cc1nn(Cc2ccccc2Cl)c(C)c1NC(=O)c1noc2c1CCCCC2 | – | inactive: 6.37%
10 | CC(OC(=O)c1ccccc1O)C(=O)Nc1ccc(Cl)cn1 (centres undefined) | inconclusive: 18.4 µM [activator, partial curve, poor fit] | –
11 | O=C(CSc1nnc(-c2c[nH]c3ccccc23)o1)N1CCCCC1 | inconclusive: 29.1 µM [activator, single point] | –
12 | CN(C)S(=O)(=O)c1ccc(NC(=O)CN2C(=O)NC3(CCCC3)C2=O)cc1 | – | inactive: -4.89%
13 | O=C(NC1=C(Nc2ccc(Cl)cc2)C(=O)c2ccccc2C1=O)c1ccccc1 | inconclusive: 20.6 µM [activator, single point] | –
14 | Cc1ccc(NC(=S)NC(=O)C2CC2)cc1Cl | inconclusive: 29.1 µM [activator, single point] | –
15 | CCOC(=O)N/N=C/c1ccc(N(CC)CC)cc1O | active: 16.4 µM | –
16 | O=C(COC(=O)c1cn(-c2ccccc2)nc1-c1ccccc1)Nc1ncc(Cl)cc1Cl | inconclusive: 29.1 µM [activator, partial curve, poor fit] | –
17 | CCOc1ccccc1NC(=O)COC(=O)Cc1cccs1 | inconclusive: 18.4 µM [activator, single point] | –
18 | COCCNC(=O)/C(C#N)=C/c1ccc2c(c1)OCO2 | – | inactive: -6.71%
19 | CCOC(=O)C1=C(CSc2nc(CC)c(C)cc2C#N)OC(N)=C(C#N)C1c1ccc(OC)cc1 (centres undefined) | inconclusive: 29.1 µM [activator, single point] | –
20 | CC(C)(C)c1ccc(Oc2ncccc2NC(=O)c2cccs2)cc1 | inconclusive: 4.61 µM [activator, partial curve] | –
21 | CN(C)CCCN(C(=O)/C=C/c1cccs1)c1nc2c(F)cccc2s1 | inconclusive: 1.64 µM [activator, full curve, poor fit] | –
22 | c1ccc(Cn2c(CNc3nc4ccccc4n3CCN3CCCCC3)nc3ccccc32)cc1 | inconclusive: 18.4 µM [activator, single point] | –

Row | Structure (SMILES) | Potency | re-replication activation
23 | Cn1cnc([N+](=O)[O-])c1S(=O)(=O)Nc1ccccc1 | inconclusive: 18.4 µM [activator, single point] | –
24 | c1ccc(CCn2nnnc2CN2CCCc3ccccc32)cc1 | inconclusive: 6.51 µM [activator, single point] | –
25 | Cc1ccc(NC(=S)N(CCN(C)C)Cc2cccs2)c(C)c1 | inconclusive: 23.1 µM [activator, single point] | –
26 | Cc1ccc(C)c(Cn2nc3c4ccccc4n(Cc4ccccc4)cc-3c2=O)c1 | inconclusive: 23.1 µM [activator, partial curve, poor fit] | –
27 | COc1ccc(CNc2nc3c(c(=O)n(Cc4ccc(Cl)cc4)c(=O)n3C)n2C)cc1 | inconclusive: 20.6 µM [activator, partial curve, poor fit] | –
28 | COc1ccc(CN(C)CC(=O)Nc2sc3c(c2C#N)CCC3)cc1OC | active: 11.6 µM | –
29 | CCC(=O)Nc1c(OC(=O)CC)ccc2c(C)cc(=O)oc12 | inconclusive: 20.6 µM [activator, partial curve, poor fit] | –
30 | CCc1nnc(NC(=O)CCC(=O)Nc2ccc(OC)cc2OC)s1 | inconclusive: 29.1 µM [activator, single point] | –
31 | Cc1c(CCC(=O)O)c(=O)oc2cc3occ(-c4ccc(Br)cc4)c3cc12 | inconclusive: 29.1 µM [activator, single point] | –
32 | COc1ccccc1CNC(=O)CSC1=NCCS1 | inconclusive: 18.4 µM [activator, single point] | –
33 | Cc1ccc(-n2cccn2)c(CN2CCCC(C(=O)c3sccc3C)C2)c1 (centres undefined) | inconclusive: 16.4 µM [activator, single point] | –
34 | c1ccc(-n2cnc3cc(NCc4ccco4)ccc32)cc1 | inconclusive: 18.4 µM [activator, single point] | –
35 | O=C(Nc1nc2ccc(F)cc2s1)C1CCN(S(=O)(=O)c2cc([N+](=O)[O-])ccc2Cl)CC1 | inconclusive: 29.1 µM [activator, partial curve, poor fit] | –
36 | CC(C)NCC(O)c1ccc(NS(C)(=O)=O)cc1 (centres undefined) | inconclusive: 12.4 µM [activator, single point] | –
37 | C[n+]1cccc(C2C(C#N)=C(N)Oc3c2ccc2ccccc32)c1 (centres undefined) | active: 18.4 µM | –
38 | Cc1ccc(C(NC(=O)N2CCCC2)C(Cl)Cl)cc1F (centres undefined) | inconclusive: 14.6 µM [activator, single point] | –
39 | CC(C)CN(C(=O)CSc1nc2ccccc2o1)c1c(N)n(Cc2ccccc2)c(=O)[nH]c1=O | inconclusive: 20.6 µM [activator, single point] | –
40 | COc1ccc(NS(=O)(=O)c2ccc(O)c(C(=O)OCC(=O)N3CCCCC3)c2)cc1 | inconclusive: 29.1 µM [activator, single point] | –
41 | Cc1ccc(S(=O)(=O)n2nc(OC(=O)c3cccs3)cc2N)cc1 | inconclusive: 29.1 µM [activator, single point] | –
42 | CCC(=O)N(CCc1ccccc1)Cc1cc2cc3c(cc2[nH]c1=O)OCO3 | inconclusive: 8.2 µM [activator, partial curve] | –
43 | Cc1cc(N)n(-c2ccc(S(=O)(=O)N3CCCC3)cc2[N+](=O)[O-])n1 | inconclusive: 0.651 µM [activator, full curve, poor fit] | –
44 | CCc1ccc(CN(C)C(=O)C2=CC=CN3CCS(=O)(=O)N=C23)cc1 | inconclusive: 0.103 µM [activator, full curve, poor fit] | –

Row | Structure (SMILES) | Potency | re-replication activation
45 | CC(C)c1ccc(NC(=O)N2CCCC2C(=O)Nc2ccc(-n3cnnn3)cc2)cc1 (centres undefined) | – | inactive: 0.183%
46 | CC1=C(C)C(=O)C(CCCCC#CCCCC#CCO)=C(C)C1=O | inconclusive: 0.651 µM [activator, single point] | –
47 | CCC1CN(C(=O)N2CCC(C(=O)NCCc3ccc(OC)cc3OC)CC2)c2ccccc2O1 (centres undefined) | inconclusive: 6.51 µM [activator, single point] | –
48 | CCOC(=O)Cc1csc(NC(=O)c2csc3c2CCCC3)n1 | inconclusive: 18.4 µM [activator, single point] | –
49 | Cc1ccc(NCC(=O)N/N=C/c2ccc(-c3cccc(C(F)(F)F)c3)o2)cc1 | inconclusive: 18.4 µM [activator, partial curve, poor fit] | –
50 | Cc1cc(OCC(=O)N(Cc2cccs2)C2CCS(=O)(=O)C2)ccc1Cl (centres undefined) | – | inactive: -3.19%
51 | Cn1c(N)c(C(=O)COC(=O)c2ccc([N+](=O)[O-])o2)c(=O)n(C)c1=O | inconclusive: 18.4 µM [activator, partial curve, poor fit] | –
52 | Nc1ccccc1Nc1cc(-c2cccc(Cl)c2)nn1-c1ccccc1 | inconclusive: 23.1 µM [activator, single point] | –
53 | CCCCN(C)CCNC(=O)c1cc(-c2cccnc2)nc2ccc(S(=O)(=O)N3CCC(C)CC3)cc12 | inconclusive: 16.4 µM [activator, single point] | –
54 | COC(=O)C(NC(=O)c1ccc(F)cc1)(Nc1ncc(S(=O)(=O)c2ccc([N+](=O)[O-])cc2)s1)C(F)(F)F (centres undefined) | inconclusive: 5.17 µM [activator, full curve, poor fit] | –
55 | CCOc1ccc(NC(=O)Nc2cc(OCC(F)(F)F)cc(OCC(F)(F)F)c2)cc1 | inconclusive: 4.61 µM [activator, full curve] | –
56 | O=C1N(c2ccccc2C(F)(F)F)OC1(Cc1ccccc1)c1ccccc1 (centres undefined) | inconclusive: 29.1 µM [activator, single point] | –
57 | COc1cccc(=O)c2c(C)n(-c3cc(C)cc(C)c3)c(C)c12 | – | inactive: -0.0154%
58 | CCN(CC)S(=O)(=O)c1ccc(NC(=O)CC(NC(C)=O)c2ccccc2)cc1 (centres undefined) | inconclusive: 6.51 µM [activator, partial curve, poor fit] | –
59 | CCOC(=O)c1cc(-c2ccccc2C)nn1Cc1cc(C)no1 | inconclusive: 23.1 µM [activator, single point] | –
60 | Cc1cc(C)c(S(=O)(=O)N2CCN(C(=O)C3CC3)CC2)c(C)c1 | inconclusive: 20.6 µM [activator, partial curve, poor fit] | –
61 | CCOC(=O)CN1CCc2c(C)nc3c(-c4ccc(OC)c(OC)c4)cnn3c21 | inconclusive: 29.1 µM [activator, partial curve, poor fit] | –
62 | COc1ccc(C(=O)CCc2ccc(OC)c(OC)c2)cc1 | – | inactive: -1.22%
63 | O=C(/C=C/c1cccc(C(F)(F)F)c1)N1CCN(c2ccccn2)CC1 | active: 4.61 µM | –
64 | CN(C)C(=O)C12CCC(C)(C(=O)C1Br)C2(C)C (centres undefined) | – | inactive: 9.15%

Part of the list above, as tab-separated lines:
Row	Structure (SMILES)	Potency	re-replication activation
16	O=C(COC(=O)c1cn(-c2ccccc2)nc1-c1ccccc1)Nc1ncc(Cl)cc1Cl	inconclusive: 29.1 µM [activator, partial curve, poor fit]	–
17	CCOc1ccccc1NC(=O)COC(=O)Cc1cccs1	inconclusive: 18.4 µM [activator, single point]	–
